Species: Mus musculus
Assay: cells
Details: Tail, read-out: pA2 (converted)

CN1CC[C@]23c4c5ccc(O)c4O[C@H]2[C@@H](O)C=C[C@H]3[C@H]1C5 [MORPHINE]
Kb: > 1000 nM

Reference: ChEMBL document CHEMBL1121652, “Allylprodine analogues as receptor probes. Evidence that phenolic and nonphenolic ligands interact with different subsites on identical opioid receptors” (J Med Chem, 1981)
